In patent publication US9784752B2, “Venlafaxine assay” (Randox Laboratories, Limited, priority 2012, dated 2017):

System: polyclonal antibody raised to Immunogen II
Experiment: Competitive biochip immunoassay (Evidence Investigator) with Hapten-1 HRP detecting agent
Format: binding, sheep
Settings: concentration causing 50% displacement of signal; competition with Hapten-1 HRP for immobilised polyclonal antibody; 30 minutes at 30° C.
Description: A semi-automated Evidence Investigator analyser (Randox Laboratories Ltd., Crumlin, UK) was used as the platform for a biochip assay for the detection of venlafaxine and O-desmethylvenlafaxine. Immunogen II was administered to adult sheep on a monthly basis to provide target-specific polyclonal antisera. IgG was extracted from the antisera, and the purified antibody was immobilised on a biochip (9 mm×9 mm). The assay is based on competition for binding sites of a polyclonal antibody between Hapten-1HRP detecting agent (Example 10) and venlafaxine and O-desmethylvenlafaxine and potential cross-reactants. The antibody was immobilised and stabilised onto the biochip surface as previously described (Fitzgerald et al., 2005). Assay diluent (155 μL), calibrator/venlafaxine and O-desmethylvenlafaxine or potential cross-reactant (25 μL) followed by Hapten-1 HRP detecting agent (120 μL) were added to the appropriate biochip. The biochips were then incubated for 30 minutes at 30° C. on a thermoshaker set at 370 rpm. The biochips were then subjected to 2 quick wash cycles using the wash buffer provided, followed by 4×2 minute wash cycles. 250 μL of signal (1:1 luminol+peroxide, v/v) was then added to each biochip, and after 2 minutes the biochip carrier was imaged in the Evidence Investigator analyser. […]

For `COc1cccc(C2(O)CCCCC2CN(C)C)c1` (stereo not shown) [Tramadol], the “IC50” value was >0.32 µg/mL.
